Reference: patent WO2021110095A1 (dated 2021)

The chains behind the UniProt entries cited, without tags or fusion partners. Where a name states a change or a piece, a line headed by the entry shows the natural chain unless it says otherwise.
UniProt P51654: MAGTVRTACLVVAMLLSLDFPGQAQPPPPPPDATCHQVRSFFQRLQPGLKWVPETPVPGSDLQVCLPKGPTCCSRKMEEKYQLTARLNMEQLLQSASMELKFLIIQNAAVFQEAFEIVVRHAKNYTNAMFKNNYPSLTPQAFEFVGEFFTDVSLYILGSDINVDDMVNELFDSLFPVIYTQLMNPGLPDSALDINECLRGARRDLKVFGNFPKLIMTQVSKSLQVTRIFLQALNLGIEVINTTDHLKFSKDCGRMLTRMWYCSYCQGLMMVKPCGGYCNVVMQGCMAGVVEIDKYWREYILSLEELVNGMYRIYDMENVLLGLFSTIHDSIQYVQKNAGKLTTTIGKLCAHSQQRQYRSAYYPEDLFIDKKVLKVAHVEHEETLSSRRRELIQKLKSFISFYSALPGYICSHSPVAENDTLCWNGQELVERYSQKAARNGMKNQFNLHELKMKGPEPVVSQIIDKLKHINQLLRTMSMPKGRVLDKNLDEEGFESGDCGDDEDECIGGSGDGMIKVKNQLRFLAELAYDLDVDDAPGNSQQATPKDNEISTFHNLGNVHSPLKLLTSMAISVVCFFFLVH

Molecular target: human GPC3 full-length protein on cells (CHO-K1-hGPC3; cells expressing GPC3) (human) (UniProt P51654)
Test: flow cytometry on cells expressing GPC3

B1: humanized antibody Ab9 (antibody, human IgG1, kappa, V domains shown)
VH: QVQLVQSGAEVKKPGASVKVSCKASGYTFTDYEMHWVRQAPGQGLEWMGAIDPKTGRTAYNQKFKDRVTLTADKSTSTAYMELSSLTSEDTAVYYCTRYYSYAYWGQGTLVTVSS
VL: DVVMTQSPLSLSVTPGEPASISCRSSQSLVHSNRNTYLQWYLQKPGQPPQLLIYKVSNRFSGVPDRFSGSGSGTDFTLKISRVEAEDVGVYYCSQSIHVPYTFGQGTKLEIKR
  binding: binds

These are yes or no findings as the source states them, for the method shown. A result given as binding can be weak or reduced; the word gives no strength.
